The values below come from the supplement of paper PMC11546906.

Where a name gives a salt, the structure may show the parent alone. The list shows a part of the results. Single values are uncertain here, since repeats match poorly.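 A screen tested FDA-approved drugs combined with one-eighth-MIC colistin against a clinical mcr-1-positive, multidrug-resistant E. coli isolate, measuring OD600 at 24 h. Controls were untreated bacteria (growth) and broth alone (blank). An OD600 under 0.2 marked a combination as active.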

For this assay, the system named is Escherichia coli 42 (mcr-1-positive clinical isolate). The assay is described as follows: OD600 after 24 h growth with compound plus colistin (absorbance units (OD600)); higher = more bacterial growth (less inhibition). Conditions: first compound 25 µM; colistin concentration 0.5 ug/mL; incubation time 24 h; 37 °C.
In the case of `CO[C@H]1C[C@@H]2CC[C@@H](C)[C@@](O)(O2)C(=O)C(=O)N2CCCC[C@H]2C(=O)O[C@H]([C@H](C)C[C@@H]2CC[C@@H](O)[C@H](OC)C2)CC(=O)[C@H](C)/C=C(\C)[C@@H](O)[C@@H](OC)C(=O)[C@H](C)C[C@H](C)/C=C/C=C/C=C/1C` [Rapamycin] + CCC(C)CCCC(=O)N[C@@H](CCN)C(=O)N[C@H](C(=O)N[C@@H](CCN)C(=O)N[C@H]1CCNC(=O)[C@H]([C@@H](C)O)NC(=O)[C@H](CCN)NC(=O)[C@H](CCN)NC(=O)[C@H](CC(C)C)NC(=O)[C@@H](CC(C)C)NC(=O)[C@H](CCN)NC1=O)[C@@H](C)O [colistin], the OD600 is inactive: 1.01. To `CN1CCN(CCCN2c3ccccc3Sc3ccc(C(F)(F)F)cc32)CC1` [Trifluoperazine dihydrochloride] + CCC(C)CCCC(=O)N[C@@H](CCN)C(=O)N[C@H](C(=O)N[C@@H](CCN)C(=O)N[C@H]1CCNC(=O)[C@H]([C@@H](C)O)NC(=O)[C@H](CCN)NC(=O)[C@H](CCN)NC(=O)[C@H](CC(C)C)NC(=O)[C@@H](CC(C)C)NC(=O)[C@H](CCN)NC1=O)[C@@H](C)O [colistin] belongs active: 0.039; to `CO[C@H]1O[C@@H]2O[C@@]3(C)CC[C@H]4[C@H](C)CC[C@@H]([C@H]1C)[C@@]24OO3` [Artemether] + CCC(C)CCCC(=O)N[C@@H](CCN)C(=O)N[C@H](C(=O)N[C@@H](CCN)C(=O)N[C@H]1CCNC(=O)[C@H]([C@@H](C)O)NC(=O)[C@H](CCN)NC(=O)[C@H](CCN)NC(=O)[C@H](CC(C)C)NC(=O)[C@@H](CC(C)C)NC(=O)[C@H](CCN)NC1=O)[C@@H](C)O [colistin], active: 0.039; to `O=c1[nH]cnc2c1ncn2[C@@H]1O[C@H](CO)[C@@H](O)[C@H]1O` [Inosine] + CCC(C)CCCC(=O)N[C@@H](CCN)C(=O)N[C@H](C(=O)N[C@@H](CCN)C(=O)N[C@H]1CCNC(=O)[C@H]([C@@H](C)O)NC(=O)[C@H](CCN)NC(=O)[C@H](CCN)NC(=O)[C@H](CC(C)C)NC(=O)[C@@H](CC(C)C)NC(=O)[C@H](CCN)NC1=O)[C@@H](C)O [colistin], inactive: 1.12. On to `CC(=O)Nc1cccc(-n2c(=O)n(C3CC3)c(=O)c3c(Nc4ccc(I)cc4F)n(C)c(=O)c(C)c32)c1` [Trametinib (DMSO solvate)] + CCC(C)CCCC(=O)N[C@@H](CCN)C(=O)N[C@H](C(=O)N[C@@H](CCN)C(=O)N[C@H]1CCNC(=O)[C@H]([C@@H](C)O)NC(=O)[C@H](CCN)NC(=O)[C@H](CCN)NC(=O)[C@H](CC(C)C)NC(=O)[C@@H](CC(C)C)NC(=O)[C@H](CCN)NC1=O)[C@@H](C)O [colistin], for which the OD600 is inactive: 0.934. With `CCCN(CCC)CCc1cccc2c1CC(=O)N2` [Ropinirole hydrochloride] + CCC(C)CCCC(=O)N[C@@H](CCN)C(=O)N[C@H](C(=O)N[C@@H](CCN)C(=O)N[C@H]1CCNC(=O)[C@H]([C@@H](C)O)NC(=O)[C@H](CCN)NC(=O)[C@H](CCN)NC(=O)[C@H](CC(C)C)NC(=O)[C@@H](CC(C)C)NC(=O)[C@H](CCN)NC1=O)[C@@H](C)O [colistin], the OD600 was inactive: 1.04. To `CC[C@H](C)C(=O)O[C@H]1C[C@@H](C)C=C2C=C[C@H](C)[C@H](CC[C@@H]3C[C@@H](O)CC(=O)O3)[C@H]21` [Lovastatin] + CCC(C)CCCC(=O)N[C@@H](CCN)C(=O)N[C@H](C(=O)N[C@@H](CCN)C(=O)N[C@H]1CCNC(=O)[C@H]([C@@H](C)O)NC(=O)[C@H](CCN)NC(=O)[C@H](CCN)NC(=O)[C@H](CC(C)C)NC(=O)[C@@H](CC(C)C)NC(=O)[C@H](CCN)NC1=O)[C@@H](C)O [colistin] belongs inactive: 0.917. On to `Nc1nc2[nH]cc(CCc3ccc(C(=O)N[C@@H](CCC(=O)O)C(=O)O)cc3)c2c(=O)[nH]1` [Pemetrexed disodium] + CCC(C)CCCC(=O)N[C@@H](CCN)C(=O)N[C@H](C(=O)N[C@@H](CCN)C(=O)N[C@H]1CCNC(=O)[C@H]([C@@H](C)O)NC(=O)[C@H](CCN)NC(=O)[C@H](CCN)NC(=O)[C@H](CC(C)C)NC(=O)[C@@H](CC(C)C)NC(=O)[C@H](CCN)NC1=O)[C@@H](C)O [colistin], for which the OD600 was inactive: 0.91.
